Measured data: PubChem BioAssay AID1259254 (NCATS, 2017)
Here is a random part of about 59,000 reagents tested. Of all reagents, about 1,550 (2.6%) got an active call. 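G2 share is only a proxy for re-replication; each gene was hit by three separate siRNAs, and active genes were retested.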 Entries without a mark were called inactive. Reagents against one gene are numbered here. Not all columns of the deposit are shown. Not given: the amount of reagent.

Purpose: 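Finding genes that stop cells copying their DNA twice in one cycle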 (primary screen)
Cell system: human HCT116 colorectal cancer cells
Reagent: single siRNA against human genes
Duration: 3 days
Measurement: 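Nuclei stained with Hoechst and imaged; cell-cycle phase assigned by DNA content; G2 share scaled per plate, non-targeting siRNA 0%, GMNN siRNA 100%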
Scale: G2 robust z-score: higher = more G2 cells, more excess DNA replication
Call rule: 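Active siRNAs have a G2 robust z of 5 or more median absolute deviations over the median, which in these data means about 38% or higher of GMNN control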

G2 robust z-score, by target gene and reagent
CFL2: #1 0.128; #2 0.763; #3 0.992
PHEX: #1 0.555; #2 -0.582; #3 2.75
ZNF248: #1 2.57; #2 1.19; #3 0.0296
HOXD12: #1 0.47; #2 -1.46; #3 1.14
ARHGAP26: #1 -0.735; #2 1.18; #3 -1.76
APOA1: #1 -0.331; #2 -0.695; #3 2.46
TAPBPL: #1 1.73; #2 -0.762; #3 -0.763
UNC5D: #1 0.915; #2 -0.88; #3 4.79
PAQR3: #1 0.163; #2 0.0994; #3 -0.837
CASQ2: #1 -0.528; #2 -0.505; #3 2.46

Part of the list above in another layout.
UNC5D #3
- G2 robust z-score: 4.79

PAQR3 #1
- G2 robust z-score: 0.163

PAQR3 #2
- G2 robust z-score: 0.0994

PAQR3 #3
- G2 robust z-score: -0.837
